# Measurements reported in US11717508B2, “Compounds, compositions, and methods for inhibiting bacterial growth” (priority 2016, dated 2023).
# Several values for one entry are separate records, joined by “and”; a condition that tells them apart may be missing. Equal values may be shown once. Read-outs that look alike come from different tables or passages of the source. The source gives many values for each of these; only a part stands here.
# System: DosRST regulon
# Assay type: cell-based
# Conditions: for Counts per million (CPM) WT_HC103A: replicates 1, 2
compound,measurement,setting,value
"O=C(Nc1cccc(O)c1)c1cccc(NC(=O)c2cccs2)c1 [HC103A, N-[3-[(3 hydroxyphenyl)carbamoyl]phenyl]thiophene-2-carboxamide]",Counts per million (CPM) WT_HC103A,gene MT36S5 Rv3551,77.96 CPM and 70.72 CPM
same,Counts per million (CPM) WT_HC103A,gene MT0086 Rv0079,612.5 CPM and 321 CPM
same,Counts per million (CPM) WT_HC103A,gene MT0087 Rv0080,224.7 CPM and 124.7 CPM
same,WT DMSO/WT HC103A Fold change,gene MT0169 Rv0160c PE,2.654
same,log2 Fold change,gene MT0169 Rv0160c PE,1.408
same,Counts per million (CPM) WT_HC103A,gene MT0169 Rv0160c PE,19.65 CPM and 19.55 CPM
same,WT DMSO/WT HC103A Fold change,gene MT0206 Rv0196,4.813
same,log2 Fold change,gene MT0206 Rv0196,2.267
same,Counts per million (CPM) WT_HC103A,gene MT0206 Rv0196,145.2 CPM and 138.3 CPM
same,Counts per million (CPM) WT_HC103A,gene MT0207 Rv0197,324.2 CPM and 345.5 CPM
same,Counts per million (CPM) WT_HC103A,gene MT0337 Rv0322 udgA,71.01 CPM and 46.23 CPM
same,Counts per million (CPM) WT_HC103A,gene MT0468 Rv0452,128.9 CPM and 95.91 CPM
same,Counts per million (CPM) WT_HC103A,gene MT0491 Rv0474,167.6 CPM and 130.6 CPM
same,Counts per million (CPM) WT_HC103A,gene MT0585 Rv0559c,"2,729.98 CPM and 4,689.54 CPM"
same,Counts per million (CPM) WT_HC103A,gene MT0586 Rv0560c,"6,038.01 CPM and 10,500.79 CPM"
same,Counts per million (CPM) WT_HC103A,gene MT0595 Rv0569,28.43 CPM and 30.13 CPM
same,Counts per million (CPM) WT_HC103A,gene MT0808 Rv0784,168.9 CPM and 139.9 CPM
same,Counts per million (CPM) WT_HC103A,gene MT0910 Rv0887c,40.68 CPM and 23.64 CPM
same,Counts per million (CPM) WT_HC103A,gene MT1294 Rv1255c,27.37 CPM and 11.95 CPM
same,Counts per million (CPM) WT_HC103A,gene MT1608 Rv1557 mmpL6,306.8 CPM and 411.4 CPM
same,WT DMSO/WT HC103A Fold change,gene MT1924 Rv1875,2.702
same,log2 Fold change,gene MT1924 Rv1875,1.434
same,Counts per million (CPM) WT_HC103A,gene MT1924 Rv1875,140 CPM and 72.47 CPM
same,Counts per million (CPM) WT_HC103A,gene MT2090,"1,309.90 CPM and 213.7 CPM"
same,Counts per million (CPM) WT_HC103A,gene MT2091 Rv2032,93.24 CPM and 24.61 CPM
same,Counts per million (CPM) WT_HC103A,gene MT2445.1,33.55 CPM and 43.9 CPM
same,WT DMSO/WT HC103A Fold change,gene MT2526 Rv2450c,2.86
same,log2 Fold change,gene MT2526 Rv2450c,1.516
same,Counts per million (CPM) WT_HC103A,gene MT2526 Rv2450c,565.3 CPM and 307.7 CPM
same,Counts per million (CPM) WT_HC103A,gene MT2556 Rv2483c,246.1 CPM and 208 CPM
same,Counts per million (CPM) WT_HC103A,gene MT2557 Rv2484c,325.2 CPM and 280.1 CPM
same,Counts per million (CPM) WT_HC103A,gene MT2574 Rv2499c,131.7 CPM and 99.22 CPM
same,Counts per million (CPM) WT_HC103A,gene MT2576,381.7 CPM and 270.3 CPM
same,Counts per million (CPM) WT_HC103A,gene MT2577 Rv2502c accD1,138.3 CPM and 104.8 CPM
same,Counts per million (CPM) WT_HC103A,gene MT2578 Rv2503c scoB,136.9 CPM and 114.2 CPM
same,Counts per million (CPM) WT_HC103A,gene MT2579 Rv2504c scoA,149.7 CPM and 111 CPM
same,Counts per million (CPM) WT_HC103A,gene MT2698 Rv2623,323.6 CPM and 153.3 CPM
same,Counts per million (CPM) WT_HC103A,gene MT2699 Rv2624c,46.28 CPM and 12.99 CPM
same,Counts per million (CPM) WT_HC103A,gene MT2700 Rv2625c,65.11 CPM and 13.96 CPM
same,Counts per million (CPM) WT_HC103A,gene MT2701 Rv2626c,174.8 CPM and 34.87 CPM
same,Counts per million (CPM) WT_HC103A,gene MT2702 Rv2627c,50.97 CPM and 24.87 CPM
same,Counts per million (CPM) WT_HC103A,gene MT2703 Rv2678,26.47 CPM and 22.34 CPM
same,Counts per million (CPM) WT_HC103A,gene MT2704 Rv2629,413.2 CPM and 339.4 CPM
same,Counts per million (CPM) WT_HC103A,gene MT2705 Rv2630,59.82 CPM and 43.05 CPM
same,Counts per million (CPM) WT_HC103A,gene MT2707 Rv2631,74.71 CPM and 51.82 CPM
same,WT DMSO/WT HC103A Fold change,gene MT2792 Rv2719c,2.674
same,log2 Fold change,gene MT2792 Rv2719c,1.419
same,Counts per million (CPM) WT_HC103A,gene MT2792 Rv2719c,54.37 CPM and 41.56 CPM
same,WT DMSO/WT HC103A Fold change,gene MT2805 Rv2736c recX,2.589
same,log2 Fold change,gene MT2805 Rv2736c recX,1.372
same,Counts per million (CPM) WT_HC103A,gene MT2805 Rv2736c recX,90.29 CPM and 59.16 CPM
same,WT DMSO/WT HC103A Fold change,gene MT3110 Rv3026c,3.906
same,log2 Fold change,gene MT3110 Rv3026c,1.966
same,Counts per million (CPM) WT_HC103A,gene MT3110 Rv3026c,19.13 CPM and 14.81 CPM
same,WT DMSO/WT HC103A Fold change,gene MT3140 Rv3054c,11.16
same,log2 Fold change,gene MT3140 Rv3054c,3.481
same,Counts per million (CPM) WT_HC103A,gene MT3140 Rv3054c,40.68 CPM and 10.91 CPM
same,Counts per million (CPM) WT_HC103A,gene MT3171 Rv3086 adhD,246.8 CPM and 214.6 CPM
same,Counts per million (CPM) WT_HC103A,gene MT3210,0.2269 CPM and 0 CPM
same,Counts per million (CPM) WT_HC103A,gene MT3212 Rv3127,251.3 CPM and 90.33 CPM
same,Counts per million (CPM) WT_HC103A,gene MT3216 Rv3130c,290.8 CPM and 74.09 CPM
same,Counts per million (CPM) WT_HC103A,gene MT3217 Rv3131,118.8 CPM and 25.13 CPM
same,Counts per million (CPM) WT_HC103A,gene MT3218 Rv3132c,237.9 CPM and 168.7 CPM
same,Counts per million (CPM) WT_HC103A,gene MT3219 Rv3133c,112.5 CPM and 67.01 CPM
same,Counts per million (CPM) WT_HC103A,gene MT3220 Rv3134c,155.2 CPM and 61.75 CPM
same,WT DMSO/WT HC103A Fold change,gene MT3345 Rv3247c tmk,2.667
same,log2 Fold change,gene MT3345 Rv3247c tmk,1.415
same,Counts per million (CPM) WT_HC103A,gene MT3345 Rv3247c tmk,32.74 CPM and 20.58 CPM
same,Counts per million (CPM) WT_HC103A,gene MT3427,112.4 CPM and 107.5 CPM
same,Counts per million (CPM) WT_HC103A,gene MT3443 Rv3340 metC,593.2 CPM and 359.1 CPM
same,Counts per million (CPM) WT_HC103A,gene MT3444 Rv3341 metA,307.4 CPM and 175.5 CPM
same,WT DMSO/WT HC103A Fold change,gene MT3513,2.672
same,log2 Fold change,gene MT3513,1.418
same,Counts per million (CPM) WT_HC103A,gene MT3513,104.9 CPM and 49.09 CPM
same,WT DMSO/WT HC103A Fold change,gene MT3514 Rv3406,8.433
same,log2 Fold change,gene MT3514 Rv3406,3.076
same,Counts per million (CPM) WT_HC103A,gene MT3514 Rv3406,685 CPM and 289.7 CPM
same,WT DMSO/WT HC103A Fold change,gene MT3515 Rv3407,3.439
same,log2 Fold change,gene MT3515 Rv3407,1.782
same,Counts per million (CPM) WT_HC103A,gene MT3515 Rv3407,276.8 CPM and 112.9 CPM
same,Counts per million (CPM) WT_HC103A,gene MT3608 Rv3504 fadE26,48.09 CPM and 42.08 CPM
same,Counts per million (CPM) WT_HC103A,gene MT3634 Rv3531c,55.28 CPM and 43.57 CPM
same,Counts per million (CPM) WT_HC103A,gene MT3656 Rv3552,108.5 CPM and 106.4 CPM
same,Counts per million (CPM) WT_HC103A,gene MT3716 Rv3614c,"1,189.74 CPM and 540 CPM"
same,Counts per million (CPM) WT_HC103A,gene MT3717 Rv3615c,538.7 CPM and 261 CPM
same,Counts per million (CPM) WT_HC103A,gene MT3718 Rv3616c,"1,818.45 CPM and 821.5 CPM"
same,WT DMSO/WT HC103A Fold change,gene MT3723 Rv3621c PPE,3.542
same,log2 Fold change,gene MT3723 Rv3621c PPE,1.824
same,Counts per million (CPM) WT_HC103A,gene MT3723 Rv3621c PPE,40.46 CPM and 11.43 CPM
same,WT DMSO/WT HC103A Fold change,gene MT3724 Rv3622c PE,4.154
same,log2 Fold change,gene MT3724 Rv3622c PE,2.054
same,Counts per million (CPM) WT_HC103A,gene MT3724 Rv3622c PE,20.27 CPM and 6.364 CPM
same,WT DMSO/WT HC103A Fold change,gene MT3846,2.912
same,log2 Fold change,gene MT3846,1.542
same,Counts per million (CPM) WT_HC103A,gene MT3846,53.39 CPM and 59.48 CPM
